# Data reported in patent US9365489B2, “Nitrooxy alkanoic acids and derivatives thereof in feed for reducing methane emission in ruminants, and/or to improve ruminant performance” (priority 2009, dated 2016).
# Assay: In vivo test: body weight and feed intake
# Design: species or system sheep
# Conditions: for Body weight: ruminal cannula, average of weights prior and after chamber measurements, control 43.2; for DMI: control 809.5
structure (smiles),measurement,setting,value
CCOC(=O)CCO[N+](=O)[O-] [Ethyl-3-nitrooxy propionate],Body weight,Dose 1 (50 mg/animal per day),43.9 kg
same,DMI,Dose 1 (50 mg/animal per day),858.5 g/day
same,Body weight,Dose 2 (500 mg/animal per day),42.6 kg
same,DMI,Dose 2 (500 mg/animal per day),809.7 g/day
